# Reference: PMC12065020
# By UniProt entry, the sequences of proteins in these tests, tags left out.
# UniProt P08670: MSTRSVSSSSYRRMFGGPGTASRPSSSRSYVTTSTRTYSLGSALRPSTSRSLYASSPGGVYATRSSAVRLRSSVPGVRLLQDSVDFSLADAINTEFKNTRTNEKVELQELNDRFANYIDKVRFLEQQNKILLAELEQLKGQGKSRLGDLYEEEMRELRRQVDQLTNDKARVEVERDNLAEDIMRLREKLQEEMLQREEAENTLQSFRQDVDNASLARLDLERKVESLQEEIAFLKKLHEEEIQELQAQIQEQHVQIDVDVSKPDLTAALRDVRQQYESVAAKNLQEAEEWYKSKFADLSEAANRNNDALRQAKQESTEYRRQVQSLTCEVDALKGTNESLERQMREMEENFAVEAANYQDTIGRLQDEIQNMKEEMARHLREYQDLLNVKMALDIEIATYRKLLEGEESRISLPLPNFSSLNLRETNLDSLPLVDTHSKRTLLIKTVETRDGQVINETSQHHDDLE
# Biological target: Vimentin (human (endogenous in hGF)) (UniProt P08670)
# Test: affinity purification with mass spectrometry; vimentin immunoprecipitated from hGF lysates with vimentin antibody on Protein A Dynabeads; pre-immune serum beads subtracted; four replicated experiments
# Settings: not given
row,Binder,binding
1,"ATP-binding cassette subfamily F member 2 (protein, UniProt Q9UG63 1-623) MPSDLAKKKAAKKKEAAKARQRPRKGHEENGDVVTEPQVAEKNEANGRETTEVDLLTKELEDFEMKKAAARAVTGVLASHPNSTDVHIINLSLTFHGQELLSDTKLELNSGRRYGLIGLNGIGKSMLLSAIGKREVPIPEHIDIYHLTREMPPSDKTPLHCVMEVDTERAMLEKEAERLAHEDAECEKLMELYERLEELDADKAEMRASRILHGLGFTPAMQRKKLKDFSGGWRMRVALARALFIRPFMLLLDEPTNHLDLDACVWLEEELKTFKRILVLVSHSQDFLNGVCTNIIHMHNKKLKYYTGNYDQYVKTRLELEENQMKRFHWEQDQIAHMKNYIARFGHGSAKLARQAQSKEKTLQKMMASGLTERVVSDKTLSFYFPPCGKIPPPVIMVQNVSFKYTKDGPCIYNNLEFGIDLDTRVALVGPNGAGKSTLLKLLTGELLPTDGMIRKHSHVKIGRYHQHLQEQLDLDLSPLEYMMKCYPEIKEKEEMRKIIGRYGLTGKQQVSPIRNLSDGQKCRVCLAWLAWQNPHMLFLDEPTNHLDIETIDALADAINEFEGGMMLVSHDFRLIQQVAQEIWVCEKQTITKWPGDILAYKEHLKSKLVDEEPQLTKRTHNV",binds
2,"ATP-binding cassette subfamily D member 3 (protein, UniProt P28288 1-659) MAAFSKYLTARNSSLAGAAFLLLCLLHKRRRALGLHGKKSGKPPLQNNEKEGKKERAVVDKVFFSRLIQILKIMVPRTFCKETGYLVLIAVMLVSRTYCDVWMIQNGTLIESGIIGRSRKDFKRYLLNFIAAMPLISLVNNFLKYGLNELKLCFRVRLTKYLYEEYLQAFTYYKMGNLDNRIANPDQLLTQDVEKFCNSVVDLYSNLSKPFLDIVLYIFKLTSAIGAQGPASMMAYLVVSGLFLTRLRRPIGKMTITEQKYEGEYRYVNSRLITNSEEIAFYNGNKREKQTVHSVFRKLVEHLHNFILFRFSMGFIDSIIAKYLATVVGYLVVSRPFLDLSHPRHLKSTHSELLEDYYQSGRMLLRMSQALGRIVLAGREMTRLAGFTARITELMQVLKDLNHGKYERTMVSQQEKGIEGVQVIPLIPGAGEIIIADNIIKFDHVPLATPNGDVLIRDLNFEVRSGANVLICGPNGCGKSSLFRVLGELWPLFGGRLTKPERGKLFYVPQRPYMTLGTLRDQVIYPDGREDQKRKGISDLVLKEYLDNVQLGHILEREGGWDSVQDWMDVLSGGEKQRMAMARLFYHKPQFAILDECTSAVSVDVEGYIYSHCRKVGITLFTVSHRKSLWKHHEYYLHMDGRGNYEFKQITEDTVEFGS",binds
3,"ATP-binding cassette subfamily F member 3 (protein, UniProt Q9NUQ8 1-709) MATCAEILRSEFPEIDGQVFDYVTGVLHSGSADFESVDDLVEAVGELLQEVSGDSKDDAGIRAVCQRMYNTLRLAEPQSQGNSQVLLDAPIQLSKITENYDCGTKLPGLLKREQSSTVNAKKLEKAEARLKAKQEKRSEKDTLKTSNPLVLEEASASQAGSRKESRLESSGKNKSYDVRIENFDVSFGDRVLLAGADVNLAWGRRYGLVGRNGLGKTTLLKMLATRSLRVPAHISLLHVEQEVAGDDTPALQSVLESDSVREDLLRRERELTAQIAAGRAEGSEAAELAEIYAKLEEIEADKAPARASVILAGLGFTPKMQQQPTREFSGGWRMRLALARALFARPDLLLLDEPTNMLDVRAILWLENYLQTWPSTILVVSHDRNFLNAIATDIIHLHSQRLDGYRGDFETFIKSKQERLLNQQREYEAQQQYRQHIQVFIDRFRYNANRASQVQSKLKMLEKLPELKPVDKESEVVMKFPDGFEKFSPPILQLDEVDFYYDPKHVIFSRLSVSADLESRICVVGENGAGKSTMLKLLLGDLAPVRGIRHAHRNLKIGYFSQHHVEQLDLNVSAVELLARKFPGRPEEEYRHQLGRYGISGELAMRPLASLSGGQKSRVAFAQMTMPCPNFYILDEPTNHLDMETIEALGRALNNFRGGVILVSHDERFIRLVCRELWVCEGGGVTRVEGGFDQYRALLQEQFRREGFL",binds
4,"Protein S100-A11 (protein, UniProt P31949 1-105) MAKISSPTETERCIESLIAVFQKYAGKDGYNYTLSKTEFLSFMNTELAAFTKNQKDPGVLDRMMKKLDTNSDGQLDFSEFLNLIGGLAMACHDSFLKAVPSQKRT",binds
5,"Protein S100-A13 (protein, UniProt Q99584 1-98) MAAEPLTELEESIETVVTTFFTFARQEGRKDSLSVNEFKELVTQQLPHLLKDVGSLDEKMKSLDVNQDSELKFNEYWRLIGELAKEIRKKKDLKIRKK",binds
6,"Protein S100-A16 (protein, UniProt Q96FQ6 1-103) MSDCYTELEKAVIVLVENFYKYVSKYSLVKNKISKSSFREMLQKELNHMLSDTGNRKAADKLIQNLDANHDGRISFDEYWTLIGGITGPIAKLIHEQEQQSSS",binds
7,"Annexin A1 (protein, UniProt P04083 1-346) MAMVSEFLKQAWFIENEEQEYVQTVKSSKGGPGSAVSPYPTFNPSSDVAALHKAIMVKGVDEATIIDILTKRNNAQRQQIKAAYLQETGKPLDETLKKALTGHLEEVVLALLKTPAQFDADELRAAMKGLGTDEDTLIEILASRTNKEIRDINRVYREELKRDLAKDITSDTSGDFRNALLSLAKGDRSEDFGVNEDLADSDARALYEAGERRKGTDVNVFNTILTTRSYPQLRRVFQKYTKYSKHDMNKVLDLELKGDIEKCLTAIVKCATSKPAFFAEKLHQAMKGVGTRHKALIRIMVSRSEIDMNDIKAFYQKMYGISLCQAILDETKGDYEKILVALCGGN",binds

# Biological target: Vimentin (human (endogenous in hGF)), P08670
# Test: as above
# Settings: remark: other sources report otherwise
row,Binder,binding
1,"Catenin beta-1, P35222 1-781 (protein) MATQADLMELDMAMEPDRKAAVSHWQQQSYLDSGIHSGATTTAPSLSGKGNPEEEDVDTSQVLYEWEQGFSQSFTQEQVADIDGQYAMTRAQRVRAAMFPETLDEGMQIPSTQFDAAHPTNVQRLAEPSQMLKHAVVNLINYQDDAELATRAIPELTKLLNDEDQVVVNKAAVMVHQLSKKEASRHAIMRSPQMVSAIVRTMQNTNDVETARCTAGTLHNLSHHREGLLAIFKSGGIPALVKMLGSPVDSVLFYAITTLHNLLLHQEGAKMAVRLAGGLQKMVALLNKTNVKFLAITTDCLQILAYGNQESKLIILASGGPQALVNIMRTYTYEKLLWTTSRVLKVLSVCSSNKPAIVEAGGMQALGLHLTDPSQRLVQNCLWTLRNLSDAATKQEGMEGLLGTLVQLLGSDDINVVTCAAGILSNLTCNNYKNKMMVCQVGGIEALVRTVLRAGDREDITEPAICALRHLTSRHQEAEMAQNAVRLHYGLPVVVKLLHPPSHWPLIKATVGLIRNLALCPANHAPLREQGAIPRLVQLLVRAHQDTQRRTSMGGTQQQFVEGVRMEEIVEGCTGALHILARDVHNRIVIRGLNTIPLFVQLLYSPIENIQRVAAGVLCELAQDKEAAEAIEAEGATAPLTELLHSRNEGVATYAAAVLFRMSEDKPQDYKKRLSVELTSSLFRTEPMAWNETADLGLDIGAQGEPLGYRQDDPSYRSFHSGGYGQDALGMDPMMEHEMGGHHPGADYPVDGLPDLGHAQDLMDGLPPGDSNQLAWFDTDL",binds

# No constants are given. Whether binding was seen depends on the method and setting. In cells and extracts the contact can be indirect. Here binding means that the protein was enriched with, or labelled near, the bait; the list need not be complete.
